Measured values reported in article PMC12756578.
These are yes or no findings as the source states them, for the method shown. In cells and extracts the contact can be indirect. Some results given as binding are weak or reduced against the parent protein; the word gives no strength.

Molecular target: RELA (human (endogenous in A549)), Q04206
Assay: proximity ligation; Duolink In-Situ Red on fixed (2% paraformaldehyde), permeabilised A549 cells; mouse and rabbit antibody pairs against the two endogenous proteins; cells not stimulated or treated with budesonide (300 nM), IL1B (1 ng/mL) or both for 1 h (IL1B 15 min for RELA and IκBα); signal when probes are within 30-40 nm; spots counted in nuclei and outside
Settings: remark: other sources report otherwise

binding: binds
B1: inhibitor of κBα, P25963 1-317 (protein)
chain: MFQAAERPQEWAMEGPRDGLKKERLLDDRHDSGLDSMKDEEYEQMVKELQEIRLEPQEVPRGSEPWKQQLTEDGDSFLHLAIIHEEKALTMEVIRQVKGDLAFLNFQNNLQQTPLHLAVITNQPEIAEALLGAGCDPELRDFRGNTPLHLACEQGCLASVGVLTQSCTTPHLHSILKATNYNGHTCLHLASIHGYLGIVELLVSLGADVNAQEPCNGRTALHLAVDLQNPDLVSLLLKCGADVNRVTYQGYSPYQLTWGRPSTRIQQQLGQLTLENLQMLPESEDEESYDTESEFTEFTEDELPYDDCVFGGQRLTL
